# From the supplement of paper PMC5407854, “Inhibitor of ppGalNAc-T3-mediated O-glycosylation blocks cancer cell invasiveness and lowers FGF23 levels” (eLife, 2017)
# Over roughly 1,700 compounds, “T2 sensor activation Q score (MG/GFP ratio z-score vs DMSO controls)” has its median near 0.3; the highest 2% begin near 1.9. The list shows a part of the results.
# System: ppGalNAc-T2 sensor
# Experiment: T2 sensor activation Q score (MG/GFP ratio z-score vs DMSO controls) (SD units); higher = more sensor activation (inhibition of ppGalNAc-T2 glycosylation)
# Conditions: HEK293 sensor cells; 10 µM; 6 h
# Method: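 Cells were treated with compound at 10 uM for 6 h, then MG/GFP ratio was read by flow cytometry (10,000 cells per well, duplicate wells). Q = (R - R_neg)/SD_neg relative to DMSO vehicle controls; the signal rises when the glycosyltransferase is inhibited.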
row,SMILES,T2 sensor activation Q score
1,CC1=NC(C)(C)CC2CCC(O)C12 (stereo not given),-0.5
2,CCC(C)n1c(C)cc(=O)n1C(C)CC (stereo not given),-0.1
3,O=c1nc(Oc2ccccc2)nc2ncccn12,1.9
4,c1ccn(CCc2ccncc2)c1,1.4
5,CCSc1nc(C)c(C)c(=O)[nH]1,-0.5
6,CN(C)c1ccc(/C=C/C(=O)c2cc(Cl)ccc2O)cc1,-0.3
7,NC1(N2SC(S)=C3CCCC=C32)CCCCC1,-1.7
8,Cc1cccn2c(=S)[nH]nc12,-1.35
9,COc1ccc(CC(=O)c2ccc(O)cc2O)cc1,0.35
10,O=C(O)c1ccc2c(c1Sc1ccccc1)C(=O)c1ccccc1C2=O,0.2
11,CCOC(=O)c1nc2sc3c(c2c(=O)[nH]1)CCCC3,0.3
12,CCOC(=O)CCCN(c1[nH]c(C)c(C)c1C#N)S(=O)(=O)c1ccc(C)cc1,1.05
13,OC(COc1ccc(Cl)cc1)CN1CCN(c2cccc(Cl)c2)CC1 (stereo not given),1.05
14,CCCCOc1ccc(OC(=O)Nc2cc(Cl)ccc2OC)cc1,-0.4
15,Oc1ccc(Cc2ccc(Cl)cc2)c(O)c1,1.3
16,CCOC(=O)/C(=N\O)C1=CSC2=NNC(C)(C)N12,-1.5
17,O=c1[nH]c2nc(Cl)nc(Cl)c2[nH]1,1
18,C(=C\CSc1ccccn1)/CSc1ccccn1,-0.6
19,Cc1cc(NC(=O)OC(C)C)ccc1-c1ccc(NC(=O)OC(C)C)cc1C,-0.25
20,CN(C(=O)c1ccncc1)c1ccccc1,-1
21,O=C(Nc1ccc(Cl)c([N+](=O)[O-])c1)Nc1nc2ccccc2s1,-1.2
22,S=P(N1CC1)(N1CC1)N1CC1,-1.35
23,CC(C)c1ccc(-c2nc3ccccc3s2)cc1,-1.15
24,CN(C)c1nc(Cl)nc2c1nc(Cl)n2C1CCCCO1 (stereo not given),1.4
25,O=C(O)CSc1nc2ccccc2s1,0.3
26,Nn1c(Cc2ccccc2)nnc1Cc1ccccc1,0.2
27,CCOC(=O)c1cc(OCC)c2c(ccc3ccccc32)n1,0.85

row,SMILES,T2 sensor activation Q score
1,O=Nc1c(-c2cccc([N+](=O)[O-])c2)nc2ncccn12,1.6
2,Cc1ccc([N+](=O)[O-])cc1NC(=O)Nc1cccc(F)c1,-0.7
3,O=C(c1ccc(OCCN2CCCCC2)cc1)c1c(-c2ccc(O)cc2)sc2cc(O)ccc12,-1.5
4,NC(CSC1(c2cccc3ccccc23)c2ccccc2-c2ccccc21)C(=O)O (stereo not given),0.15
5,CNC(=O)c1ccccc1Sc1ccc2c(/C=C/c3ccccn3)n[nH]c2c1,-0.65
6,CS/C(=N\S(=O)(=O)c1ccccc1)NNC(=O)c1c(-c2c(Cl)cccc2Cl)noc1C,1.1
7,S=c1[nH]cc2cnccn12,-0.95
8,CSc1nc2cc(S(=O)(=O)N3CCCCC3)ccc2s1,-0.1
9,ClCC(CNCc1ccccc1)c1ccccc1 (stereo not given),1.6
10,O=C(O)c1ccccc1-n1c2ccccc2c2ccccc21,1.1
11,Cn1nc(SCc2ccccc2)c(=O)n(C(c2ccccc2)c2ccccc2)c1=O,-0.75
12,NC(=O)c1cc(C(N)=O)nc(Cl)n1,0
13,O=C(c1ccccc1)C1C(c2ccccc2)C1[N+](=O)[O-] (stereo not given),1.05
14,Cc1ccc(N2CCN(CC(O)COc3cccc(C)c3)CC2)cc1 (stereo not given),-0.85
15,NS(=O)(=O)c1cc2c(cc1Cl)NC(Cc1ccccc1)NS2(=O)=O (stereo not given),0.15
16,CNC1(C(N)=O)CCNCC1,-0.65
17,O=[N+]([O-])c1cc2cccnc2c2ncccc12,0.4
18,O=C1CSC(c2cccs2)N1c1nncs1 (stereo not given),1.1
19,S=c1nc[nH]c2nc[nH]c12,-0.4
20,CCCn1cnc2c(Sc3c([N+](=O)[O-])ncn3C)nc(N)nc21,-0.2
21,CN(/N=N/c1nc[nH]c1C(=O)NN)C1CCCCC1,1.7
22,CCOC(=O)c1cc(-c2ccccc2)nc2ccc(C)cc12,0.9
23,CCOc1nsc(OCC)n1,-0.8
24,CC(=O)Oc1ccc(OC(C)=O)c2c1CC(C)=C(C)C2,0.85
25,COc1cccc(OCC(O)CN2CCN(c3ccc(Cl)cc3)CC2)c1 (stereo not given),0.1
26,S=C(SCc1cc(Cl)cc2c1OCOC2)N1CCSCC1,-0.05
27,C=CCN1CCN(c2ccncc2S(=O)(=O)N2CCN(C)CC2)CC1,0.15

row,SMILES,T2 sensor activation Q score
1,CCOC(=O)C(C)c1c(C(=O)c2ccc(C)nc2)c2ccccc2n1C (stereo not given),0.9
2,O=c1cc(-c2ccccc2)oc2ccc(O)cc12,-0.15
3,O=C1CCCc2cc3c(cc21)CC1(C3)Cc2cc3c(cc2C1)C(=O)CCC3,-1
4,S=c1[nH]c2ccc(Cl)cc2s1,0.3
5,OC(COc1cccc2ccccc12)CN1CCN(c2ccccc2Cl)CC1 (stereo not given),-0.1
6,O=c1[nH]c2c(cnn2-c2ccc(Cl)cc2)c(=O)n1-c1cccc(Cl)c1,1.25
7,CCN(CC)CCN=c1c(C)nc(C#N)c(N)n1O,0.9
8,Cc1ccccc1NC(=O)C(=O)Nc1ccccc1C,1.7
9,CSc1c(N(C)C)c(=O)c1=S,-2.95
10,O=c1cc(CO)[nH]nc1CO,-0.95
11,CN(C)c1nc(=NCc2ccco2)ss1,1.75
12,CN(C)c1ccc2c(c1)Sc1cc(N(C)C)ccc1N2C(=O)c1ccccc1,2.55
13,Cn1ncc2c(Nc3ccccc3Cl)nc(Nc3ccccc3Cl)nc21,0.65
14,CC1=C(c2ccccc2)C=NNCC1=O,0.1
15,O=C(Nc1cccc2c1N(C(=O)c1ccco1)CCC2)c1ccco1,0.1
16,O=[N+]([O-])c1[nH]cnc1/C=C/c1ccccc1,0.4
17,CC(O)c1nc2c(c(=O)n(C)c(=O)n2C)n1C (stereo not given),1.35
18,NC(=O)c1ccccc1OCC(=O)Nc1ccc(Cl)c(Cl)c1,0.1
19,CO[C@H]1C(=O)[C@]2(C)[C@@H](OC)C[C@H]3OC[C@@]3(OC(C)=O)[C@H]2[C@H](OC(=O)c2ccccc2)[C@]2(O)C[C@H](OC(=O)[C@H](O)[C@@H](NC(=O)OC(C)(C)C)c3ccccc3)C(C)=C1C2(C)C,-0.5
20,Nc1ncnc2c1ncn2[C@@H]1C=C(CO)[C@@H](O)[C@H]1O,0.95
21,CCC(C)Nc1nc2c(c(=O)n(C)c(=O)n2C)n1C (stereo not given),1.55
22,O=C(NC(=S)Nc1cccc2c(O)cccc12)c1cccc(Br)c1,-0.9
23,NC(=O)NO,-0.75
24,CCOc1cc2c(Cl)ncnc2c(OCC)c1OCC,-0.9
25,OC[C@@H]1CCC[C@H](n2cnc3c(=S)nc[nH]c32)O1,0.75
26,CC[C@]1(O)C[C@@H]2CN(CCc3c([nH]c4ccccc34)[C@@](C(=O)OC)(c3cc4c(cc3OC)N(C)[C@H]3[C@@](O)(C(=O)OC)[C@H](OC(C)=O)[C@]5(CC)C=CCN6CC[C@]43[C@@H]65)C2)C1,2.05

# Copied from the list:
# Value for CC(O)c1nc2c(c(=O)n(C)c(=O)n2C)n1C (stereo not given) under T2 sensor activation Q score: 1.35
# Value for CCN(CC)CCN=c1c(C)nc(C#N)c(N)n1O under T2 sensor activation Q score: 0.9
# Value for O=c1cc(-c2ccccc2)oc2ccc(O)cc12 under T2 sensor activation Q score: -0.15
# Value for S=c1[nH]c2ccc(Cl)cc2s1 under T2 sensor activation Q score: 0.3
